Test results as given in PubChem BioAssay AID330 (DTP/NCI, 2004).
The list shows only some results of the screen, not a fair sample: it gathers tests that were run many times, whatever their T/C, doses with no T/C, and many T/C values between a quarter and a half above the control. Other doses and runs of a compound stand elsewhere. T/C: endpoint of the treated group in % of that of the vehicle group. Some entries give survivors of the animals treated and no T/C: the source holds a T/C of zero for them, seemingly a mark for toxic or unscored doses. Some doses without a T/C left all or most animals alive at the check, yet need not have been tolerated: survival well below the control is almost never listed, so the zero probably covers shortened survival too. Survivors were counted at the toxicity check, usually on the fifth day, unless a day is given; later deaths do not show. Schedules are NCI's codes, read here as Q, the interval in days (D) or hours (H), X, the number of doses. Some molecules as drawn cover several salts, stereoisomers or complexes of the source; a dose is that of the sample tested. Some entries hold several experiments; the values are given in rising order. Where survival is the endpoint, this PubChem deposit counts one and a half times the control or more as active, and values a quarter to a half above the control carry no call in these data; other NCI protocols may use other cut-offs. Some T/C values are followed by the survivors on the day toxicity was checked, most often the fifth; without a count, all were alive then.

System: P388 leukemia ip, CD2F1 mice, survival T/C
Assay: NCI In Vivo Anticancer Drug Screen. Data for tumor model P388 Leukemia (intraperitoneal) in CD2F1 (CDF1) mice
Conditions: T/C endpoint: median survival time, higher T/C = longer survival
[1] = dose: 100.0 mg/kg/injection, schedule: Q01DX009 (ip), vehicle: saline

SMILES: CN(C)CCCN1c2ccccc2Sc2ccc(Cl)cc21
- survivor count (dose: 12.5 mg/kg/injection, schedule: Q01DX009 (ip), vehicle: saline with Tween-80): 4 of 6
- T/C (dose: 25.0 mg/kg/injection, schedule: Q04DX003 (ip), vehicle: Klucel (hydroxypropylcellulose) (HPC)): 126 % of control [5 of 6 alive]
- T/C (dose: 30.0 mg/kg/injection, schedule: Q04DX003 (ip), vehicle: saline): 126 % of control
- T/C (dose: 50.0 mg/kg/injection, schedule: Q04DX003 (ip), vehicle: saline): 126 and 133 % of control
- survivor count (dose: 60.0 mg/kg/injection, schedule: Q04DX003 (ip), vehicle: saline): 3 of 6
- T/C (dose: 100.0 mg/kg/injection, schedule: Q04DX003 (ip), vehicle: Klucel (hydroxypropylcellulose) (HPC)): 138 % of control
- survivor count (dose: 100.0 mg/kg/injection, schedule: Q04DX003 (ip), vehicle: saline with Tween-80): 3 of 6
- survivor count (dose: 100.0 mg/kg/injection, schedule: Q04DX003 (ip), vehicle: saline): 4 of 6 and 5 of 6
- survivor count (dose: 200.0 mg/kg/injection, schedule: Q04DX003 (ip), vehicle: saline with Tween-80): 0 of 6
- survivor count (dose: 400.0 mg/kg/injection, schedule: Q04DX003 (ip), vehicle: saline with Tween-80): 0 of 6

SMILES: C[P+]1(C)CCCCC1
- survivor count (dose: 400.0 mg/kg/injection, schedule: Q01DX001 (ip), vehicle: saline): 0 of 6

SMILES: Cc1ncccc1[N+](=O)[O-]
- survivor count (dose: 100.0 mg/kg/injection, schedule: Q01DX009 (ip), vehicle: saline + Tween-80 + alcohol): 6 of 6
- survivor count (dose: 200.0 mg/kg/injection, schedule: Q01DX009 (ip), vehicle: saline + Tween-80 + alcohol): 0 of 6

SMILES: CC(/C=C/c1ccccc1)=N\Nc1ccc(Cl)cc1Cl
- survivor count (dose: 200.0 mg/kg/injection, schedule: Q01DX009 (ip), vehicle: Klucel (hydroxypropylcellulose) (HPC)): 2 of 6

SMILES: CCOc1c(Cc2ccccc2)c(=O)n2c3ccccc3n(CC)c2c1C#N
- survivor count (dose: 60.0 mg/kg/injection, schedule: Q01DX005 (ip), vehicle: saline with Tween-80): 6 of 6
- survivor count (dose: 120.0 mg/kg/injection, schedule: Q01DX005 (ip), vehicle: saline with Tween-80): 6 of 6
- survivor count (dose: 240.0 mg/kg/injection, schedule: Q01DX005 (ip), vehicle: saline with Tween-80): 6 of 6

SMILES: Cc1ccc(/C=N/NC(=O)C(=O)Nc2ccc(Cl)c([N+](=O)[O-])c2)cc1
- survivor count (dose: 25.0 mg/kg/injection, schedule: Q01DX005 (ip), vehicle: saline with Tween-80): 6 of 6
- survivor count (dose: 50.0 mg/kg/injection, schedule: Q01DX005 (ip), vehicle: saline with Tween-80): 6 of 6
- survivor count (dose: 100.0 mg/kg/injection, schedule: Q01DX005 (ip), vehicle: saline with Tween-80): 6 of 6
- survivor count (dose: 200.0 mg/kg/injection, schedule: Q01DX005 (ip), vehicle: saline with Tween-80): 6 of 6

SMILES: O=c1[nH]c(=O)c2nc(-c3cccnc3)cnc2[nH]1
- T/C [1]: 127 % of control
- survivor count [1]: 6 of 6
- T/C (dose: 200.0 mg/kg/injection, schedule: Q01DX009 (ip), vehicle: saline): 138 and 144 % of control

SMILES: CNc1nc(C)nc(NC)n1
- survivor count (dose: 400.0 mg/kg/injection, schedule: Q01DX009 (ip), vehicle: Klucel (hydroxypropylcellulose) (HPC)): 0 of 6

SMILES: CN(C)CCC1c2ccc(Cl)cc2CCc2cccnc21 (configuration not stated) (tested in a mixture with another compound)
- survivor count (dose: 200.0 mg/kg/injection, schedule: Q01DX005 (ip), vehicle: saline): 0 of 6

SMILES: CCOP(=O)(O)C1CCCC(C)[N-]1.CCOP(=O)(O)C1CCCC(C)[N-]1.CCOP(=O)(O)C1CCCC(C)[N-]1.[Cr+3] (configuration not stated)
- survivor count (dose: 400.0 mg/kg/injection, schedule: Q04DX003 (ip), vehicle: Klucel (hydroxypropylcellulose) (HPC)): 6 of 6

SMILES: O=C(O)/C=N/NS(=O)(=O)c1cccc(S(=O)(=O)N/N=C/C(=O)O)c1
- T/C (dose: 12.5 mg/kg/injection, schedule: Q01DX009 (ip), vehicle: other): 127 % of control
- T/C (dose: 25.0 mg/kg/injection, schedule: Q01DX009 (ip), vehicle: other): 133 % of control
- T/C (dose: 25.0 mg/kg/injection, schedule: Q01DX009 (ip), vehicle: water): 130 % of control
- T/C (dose: 50.0 mg/kg/injection, schedule: Q01DX009 (ip), vehicle: other): 143 % of control
- T/C (dose: 50.0 mg/kg/injection, schedule: Q01DX009 (ip), vehicle: water): 128 % of control
- survivor count (dose: 100.0 mg/kg/injection, schedule: Q01DX009 (ip), vehicle: other): 6 of 6
- survivor count (dose: 100.0 mg/kg/injection, schedule: Q01DX009 (ip), vehicle: water): 5 of 6
- survivor count (dose: 200.0 mg/kg/injection, schedule: Q01DX009 (ip), vehicle: other): 5 of 6
- survivor count (dose: 200.0 mg/kg/injection, schedule: Q01DX009 (ip), vehicle: water): 3 of 6
- survivor count (dose: 400.0 mg/kg/injection, schedule: Q01DX009 (ip), vehicle: water): 0 of 6
